# Measurements: the supplement of paper PMC8728848
# The list shows a part of the results.
# What was measured:
# Experiment in all cases: glycan array binding signal (z-score within array); higher = stronger binding
# Settings in all cases: glycan notation: IUPAC condensed, linker removed
# [1] = molecular target: Fuc(a1-2)Gal
# Procedure, shortened: (§1)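 Glycan array binding is given as a within-array Z-score, which can be read as non-binding when negative. The arrays, 3228 of them, came from the Consortium for Functional Glycomics database and were retained only where the protein sequence was available. Z-scores were averaged across arrays of the same protein sequence at different concentrations or buffers and across linkers.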
# [2] = molecular target: Fuc(a1-2)Gal(b1-3)GalNAc
# Procedure, shortened: as §1
# [3] = molecular target: Fuc(a1-2)Gal(b1-3)GalNAc(a1-3)[Fuc(a1-2)]Gal(b1-4)Glc
# Procedure, shortened: as §1
# [4] = molecular target: Fuc(a1-2)Gal(b1-3)GalNAc(a1-3)[Fuc(a1-2)]Gal(b1-4)GlcNAc
# Procedure, shortened: as §1
# [5] = molecular target: Fuc(a1-2)Gal(b1-3)GalNAc(b1-3)Gal
# Procedure, shortened: as §1
# [6] = molecular target: Fuc(a1-2)Gal(b1-3)GalNAc(b1-3)Gal(a1-4)Gal(b1-4)Glc
# Procedure, shortened: as §1
# [7] = molecular target: Fuc(a1-2)Gal(b1-3)GalNAc(b1-4)[Neu5Ac(a2-3)]Gal(b1-4)Glc
# Procedure, shortened: as §1
# [8] = molecular target: Fuc(a1-2)Gal(b1-3)GlcNAc
# Procedure, shortened: as §1
# [9] = molecular target: Fuc(a1-2)Gal(b1-3)GlcNAc(b1-2)Man(a1-3)[Fuc(a1-2)Gal(b1-3)GlcNAc(b1-2)Man(a1-6)]Man(b1-4)GlcNAc(b1-4)GlcNAc
# Procedure, shortened: as §1
# [10] = molecular target: Fuc(a1-2)Gal(b1-3)GlcNAc(b1-2)Man(a1-3)[Fuc(a1-2)Gal(b1-3)GlcNAc(b1-2)Man(a1-6)]Man(b1-4)GlcNAc(b1-4)[Fuc(a1-6)]GlcNAc
# Procedure, shortened: as §1
# [11] = molecular target: Fuc(a1-2)Gal(b1-3)GlcNAc(b1-3)Gal(b1-4)Glc
# Procedure, shortened: as §1
# [12] = molecular target: Fuc(a1-2)Gal(b1-3)GlcNAc(b1-3)GalNAc
# Procedure, shortened: as §1
# [13] = molecular target: Fuc(a1-2)Gal(b1-3)GlcNAc(b1-3)[Fuc(a1-2)Gal(b1-3)GlcNAc(b1-6)]GalNAc
# Procedure, shortened: as §1
# [14] = molecular target: Fuc(a1-2)Gal(b1-3)GlcNAc(b1-3)[Gal(b1-4)GlcNAc(b1-6)]Gal(b1-4)Glc
# Procedure, shortened: as §1
# [15] = molecular target: Fuc(a1-2)Gal(b1-3)GlcNAc(b1-3)[Neu5Ac(a2-6)Gal(b1-4)GlcNAc(b1-6)]Gal(b1-4)Glc
# Procedure, shortened: as §1
# [16] = molecular target: Fuc(a1-2)Gal(b1-3)GlcNAc6S
# Procedure, shortened: as §1
# [17] = molecular target: Fuc(a1-2)Gal(b1-3)[Fuc(a1-4)]GlcNAc
# Procedure, shortened: as §1
# [18] = molecular target: Fuc(a1-2)Gal(b1-3)[Fuc(a1-4)]GlcNAc(b1-2)Man(a1-3)[Fuc(a1-2)Gal(b1-3)[Fuc(a1-4)]GlcNAc(b1-2)Man(a1-3)]Man(b1-4)GlcNAc(b1-4)GlcNAc
# Procedure, shortened: as §1
# [19] = molecular target: Fuc(a1-2)Gal(b1-3)[Fuc(a1-4)]GlcNAc(b1-2)Man(a1-3)[Fuc(a1-2)Gal(b1-3)[Fuc(a1-4)]GlcNAc(b1-2)Man(a1-6)]Man(b1-4)GlcNAc(b1-4)[Fuc(a1-6)]GlcNAc(b1-4)[Fuc(a1-6)]GlcNAc
# Procedure, shortened: as §1
# [20] = molecular target: Fuc(a1-2)Gal(b1-3)[Fuc(a1-4)]GlcNAc(b1-3)[Fuc(a1-3)[Gal(b1-4)]GlcNAc(b1-6)]Gal(b1-4)Glc
# Procedure, shortened: as §1
# [21] = molecular target: Fuc(a1-2)Gal(b1-3)[Fuc(a1-4)]GlcNAc(b1-3)[Gal(b1-4)GlcNAc(b1-6)]Gal(b1-4)Glc
# Procedure, shortened: as §1
# [22] = molecular target: Fuc(a1-2)Gal(b1-4)Glc
# Procedure, shortened: as §1
# [23] = molecular target: Fuc(a1-2)Gal(b1-4)Glc6S
# Procedure, shortened: as §1
# [24] = molecular target: Fuc(a1-2)Gal(b1-4)GlcNAc
# Procedure, shortened: as §1
# [25] = molecular target: Fuc(a1-2)Gal(b1-4)GlcNAc(b1-2)Man
# Procedure, shortened: as §1
# [26] = molecular target: Fuc(a1-2)Gal(b1-4)GlcNAc(b1-2)Man(a1-3)[Fuc(a1-2)Gal(b1-4)GlcNAc(b1-2)Man(a1-6)]Man(b1-4)GlcNAc(b1-4)GlcNAc
# Procedure, shortened: as §1
# [27] = molecular target: Fuc(a1-2)Gal(b1-4)GlcNAc(b1-2)Man(a1-3)[Fuc(a1-2)Gal(b1-4)GlcNAc(b1-2)Man(a1-6)]Man(b1-4)GlcNAc(b1-4)[Fuc(a1-6)]GlcNAc
# Procedure, shortened: as §1
# [28] = molecular target: Fuc(a1-2)Gal(b1-4)GlcNAc(b1-2)[Fuc(a1-2)Gal(b1-4)GlcNAc(b1-4)]Man(a1-3)[Fuc(a1-2)Gal(b1-4)GlcNAc(b1-2)Man(a1-6)]Man(b1-4)GlcNAc(b1-4)GlcNAc
# Procedure, shortened: as §1
# [29] = molecular target: Fuc(a1-2)Gal(b1-4)GlcNAc(b1-3)Gal(b1-4)GlcNAc
# Procedure, shortened: as §1
# [30] = molecular target: Fuc(a1-2)Gal(b1-4)GlcNAc(b1-3)Gal(b1-4)GlcNAc(b1-2)Man(a1-3)[Fuc(a1-2)Gal(b1-4)GlcNAc(b1-3)Gal(b1-4)GlcNAc(b1-2)Man(a1-6)]Man(b1-4)GlcNAc(b1-4)GlcNAc
# Procedure, shortened: as §1
# [31] = molecular target: Fuc(a1-2)Gal(b1-4)GlcNAc(b1-3)Gal(b1-4)GlcNAc(b1-3)Gal(b1-4)GlcNAc
# Procedure, shortened: as §1
# [32] = molecular target: Fuc(a1-2)Gal(b1-4)GlcNAc(b1-3)GalNAc
# Procedure, shortened: as §1
# [33] = molecular target: Fuc(a1-2)Gal(b1-4)GlcNAc(b1-3)[Fuc(a1-2)Gal(b1-4)GlcNAc(b1-6)]GalNAc
# Procedure, shortened: as §1
# [34] = molecular target: Fuc(a1-2)Gal(b1-4)GlcNAc(b1-3)[Fuc(a1-3)[Gal(b1-4)]GlcNAc(b1-6)]Gal(b1-4)Glc
# Procedure, shortened: as §1
# [35] = molecular target: Fuc(a1-2)Gal(b1-4)GlcNAc(b1-6)GalNAc
# Procedure, shortened: as §1
# [36] = molecular target: Fuc(a1-2)Gal(b1-4)GlcNAc6S
# Procedure, shortened: as §1
# [37] = molecular target: Fuc(a1-2)Gal(b1-4)[Fuc(a1-3)]GlcNAc
# Procedure, shortened: as §1
# [38] = molecular target: Fuc(a1-2)Gal(b1-4)[Fuc(a1-3)]GlcNAc(b1-2)Man(a1-3)[Fuc(a1-2)Gal(b1-4)[Fuc(a1-3)]GlcNAc(b1-2)Man(a1-6)]Man(b1-4)GlcNAc(b1-4)[Fuc(a1-6)]GlcNAc
# Procedure, shortened: as §1
# [39] = molecular target: Fuc(a1-2)Gal(b1-4)[Fuc(a1-3)]GlcNAc(b1-2)[Fuc(a1-2)Gal(b1-4)[Fuc(a1-3)]GlcNAc(b1-4)]Man(a1-3)[Fuc(a1-2)Gal(b1-4)[Fuc(a1-3)]GlcNAc(b1-2)Man(a1-6)]Man(b1-4)GlcNAc(b1-4)GlcNAc
# Procedure, shortened: as §1
# [40] = molecular target: Fuc(a1-2)Gal(b1-4)[Fuc(a1-3)]GlcNAc(b1-3)Gal(b1-4)[Fuc(a1-3)]GlcNAc
# Procedure, shortened: as §1
# [41] = molecular target: Fuc(a1-2)Gal(b1-4)[Fuc(a1-3)]GlcNAc(b1-3)Gal(b1-4)[Fuc(a1-3)]GlcNAc(b1-3)Gal(b1-4)[Fuc(a1-3)]GlcNAc
# Procedure, shortened: as §1
# [42] = molecular target: Fuc(a1-2)Gal(b1-4)[Fuc(a1-3)]GlcNAc(b1-3)GalNAc
# Procedure, shortened: as §1
# [43] = molecular target: Fuc(a1-2)Gal(b1-4)[Fuc(a1-3)]GlcNAc(b1-3)[Neu5Ac(a2-6)Gal(b1-4)GlcNAc(b1-6)]Gal(b1-4)Glc
# Procedure, shortened: as §1
# [44] = molecular target: Fuc(a1-2)Gal3S(b1-4)GlcNAc
# Procedure, shortened: as §1
# [45] = molecular target: Fuc(a1-2)Gal6S(b1-3)GlcNAc
# Procedure, shortened: as §1
binder,measurement,setting,value
Awp1 (Candida glabrata) (protein) MSLITIFAFLIKATLVLSLDILTPTTLTGDQTFNEDVSVVSSLTLNDGSQYLFNNLLQIAPSSASVTANALAAVSVFTFSLPPSSSLSNSGTLIISNSNTGPSTEQHIVITPNVMANTGTITLSLAHTNTDSSSTLIIDPVTFYNTGTINYESIGSETNDPSLTGNILSIGSSGRTLQNLGTINLNAANSYYLLGTITENSGSINVQKGFLYVNALDFIGNTINLSTTTALAFISPVSQVVRVRGVFFGNIIASVGSSGTFSYNTQTGILTVTTNGVYSYDIGCGYNPALMSGQQETLSFQGNPYDTFLVLVNQPIPSDLTCAAVSSSITPSSSVEPSSSVVPSSSVEPSSSVEPSSSVEPSSSVEPSSSVEPSSSVEPSSSVEPSSSVEPSSSVEPSSSVEPSSSVEPSSSVEPSSSVEPSSSVEPSSSVEPSSSVEPSSSVEPSSSVEPSSSVEPSSLIVPSSSVEPSSSVLPSSSVVPSSSVEPSTPPIPSSSVEPSSSVVPSSPAVPSSSVEPSTPPIPSSSVVSASVFDTSSTLPSSPSVPPSSVSPSTISTPSSSAAPSSFCPTCVSSGTPPAPSSSAIVPTSSAGGGNGGDNREPGAAGQPGAAGQPGAAGQPGAAGQPGAAGQPGAAGQPGAAGQPGAAGQPGAAGQPGAAGQPGAGFGVGSEQPTPGAGAGSGSADGNQSGTGSGTGNGQQGSGQAGSGQAGSGQEGSGQAGSGQAGSGQAGSGQAGSGQAGLDNTASGQSEGGQASAMDGDQSGRDGQSNSGSLLQPNAQQGTGSGTGSDIGADQASGESPGQIGDAQPGSGTDQSSGRHSLAAEARTSQSHSLAADARTRSTTRQTSVIAPDTAPGTASGTAPGTAPGTAVVTTFHGCGTVNHKGMINILLALALLVLL,glycan array binding signal (z-score),[1],-0.353
same,glycan array binding signal (z-score),[2],-0.005
same,glycan array binding signal (z-score),[3],0.542
same,glycan array binding signal (z-score),[4],0.588
same,glycan array binding signal (z-score),[5],0.579
same,glycan array binding signal (z-score),[6],-0.191
same,glycan array binding signal (z-score),[7],0.598
same,glycan array binding signal (z-score),[8],-0.289
same,glycan array binding signal (z-score),[9],3.11
same,glycan array binding signal (z-score),[10],-0.776
same,glycan array binding signal (z-score),[11],-0.568
same,glycan array binding signal (z-score),[12],-0.915
same,glycan array binding signal (z-score),[13],-1.05
same,glycan array binding signal (z-score),[14],0.987
same,glycan array binding signal (z-score),[15],1.26
same,glycan array binding signal (z-score),[16],-0.994
same,glycan array binding signal (z-score),[17],0.456
same,glycan array binding signal (z-score),[18],1.49
same,glycan array binding signal (z-score),[19],0.861
same,glycan array binding signal (z-score),[20],-1.7
same,glycan array binding signal (z-score),[21],2.29
same,glycan array binding signal (z-score),[22],-0.673
same,glycan array binding signal (z-score),[23],-0.401
same,glycan array binding signal (z-score),[24],-0.027
same,glycan array binding signal (z-score),[25],0.701
same,glycan array binding signal (z-score),[26],1.05
same,glycan array binding signal (z-score),[27],-0.474
same,glycan array binding signal (z-score),[28],0.228
same,glycan array binding signal (z-score),[29],0.691
same,glycan array binding signal (z-score),[30],-1.39
same,glycan array binding signal (z-score),[31],0.341
same,glycan array binding signal (z-score),[32],-0.937
same,glycan array binding signal (z-score),[33],-0.293
same,glycan array binding signal (z-score),[34],0.774
same,glycan array binding signal (z-score),[35],0.148
same,glycan array binding signal (z-score),[36],-0.775
same,glycan array binding signal (z-score),[37],-0.654
same,glycan array binding signal (z-score),[38],1.51
same,glycan array binding signal (z-score),[39],-0.117
same,glycan array binding signal (z-score),[40],-0.121
same,glycan array binding signal (z-score),[41],-0.344
same,glycan array binding signal (z-score),[42],-0.894
same,glycan array binding signal (z-score),[43],0.4
same,glycan array binding signal (z-score),[44],0.168
same,glycan array binding signal (z-score),[45],-1.06
